Laboratory results as given in the supplement of paper PMC9744312.
Counter-ions that a name gives are not always drawn. The list shows a part of the results. Single values of this set are uncertain.

These compounds were tested on Peyronie's disease tunica albuginea primary fibroblasts (assay: inhibition of TGF-beta1-induced alpha-SMA expression (myofibroblast transformation), relative to TGF-beta1-only and untreated controls; higher = stronger inhibition of myofibroblast transformation). Conditions: 10 µM; TGF-beta1 10 ng/mL; 72 h.

Structure (SMILES)	inhibition of TGF-beta1-induced alpha-SMA expression [%]
CN[C@@H]1[C@H](O[C@H]2[C@H](O[C@H]3[C@H](O)[C@@H](O)[C@H](N=C(N)N)[C@@H](O)[C@@H]3N=C(N)N)O[C@@H](C)[C@]2(O)C=O)O[C@@H](CO)[C@H](O)[C@H]1O [Streptomycin sulfate]	-24.5
Cn1nnc(-c2ccc(-c3ccc(N4C[C@H](COP(=O)(O)O)OC4=O)cc3F)cn2)n1 [Tedizolid Phosphate]	-40.4
CCOC(=O)C1=C[C@@H](OC(CC)CC)[C@H](NC(C)=O)[C@@H](N)C1 [Oseltamivir Phosphate]	17.6
C[C@]12CCC(=O)C=C1CC[C@@H]1[C@@H]2[C@@H](O)C[C@@]2(C)[C@H]1CC[C@]2(O)C(=O)CO [Hydrocortisone]	86.9
C=C[C@]1(C)C[C@@H](OC(=O)CS[C@@H]2C[C@H]3CC[C@@H](C2)N3C)[C@]2(C)[C@H](C)CC[C@]3(CCC(=O)[C@H]32)[C@@H](C)[C@@H]1O [Retapamulin]	63.6
CN(N=O)C(=O)NC1C(O)OC(CO)C(O)C1O (stereo not given) [Streptozotocin (STZ)]	-28.6
Oc1ncnc2[nH]ncc12 [Allopurinol]	6.7
CO/N=C(\C(=O)N[C@@H]1C(=O)N2C(C(=O)OCOC(=O)C(C)(C)C)=C(/C=C\c3scnc3C)CS[C@H]12)c1csc(N)n1 [Cefditoren Pivoxil]	19.3
COc1ccc(CCN(C)CCCC(C#N)(c2ccc(OC)c(OC)c2)C(C)C)cc1OC (stereo not given) [Verapamil HCl]	-42.8
Cc1onc(-c2ccccc2)c1-c1ccc(S(N)(=O)=O)cc1 [Valdecoxib]	40
CCCc1cc(=O)[nH]c(=S)[nH]1 [Propylthiouracil]	35.2
CCCC(CCC)C(N)=O [Valpromide]	12.5
C[C@]12CC[C@@H]3c4ccc(O)cc4CC[C@H]3[C@@H]1CC[C@@H]2O [Estradiol]	12.5
CCCN(CCC)S(=O)(=O)c1ccc(C(=O)O)cc1 [Probenecid]	-11.5
CC(OC(=O)OC1CCCCC1)OC(=O)C1=C(CSc2nnnn2CCN(C)C)CS[C@@H]2[C@H](NC(=O)Cc3csc(N)n3)C(=O)N12 (stereo not given in full) [Cefotiam Hexetil Hydrochloride]	34.4
CCN(CC)C(=O)c1cccnc1 [Nikethamide]	12
CCN(CC)C(=O)c1cccc(C)c1	29.8
CN(C)CCOC(c1ccccc1)c1ccccc1 [Diphenhydramine HCl]	-7.99
O=C(O)CSc1nnc(Br)n1-c1ccc(C2CC2)c2ccccc12 [Lesinurad]	-16
CC(=O)[C@H]1CC[C@H]2[C@@H]3CCC4=CC(=O)CC[C@]4(C)[C@H]3CC[C@]12C [Progesterone]	46.7

For reference, 4 of the compounds above:
Structure (SMILES)	inhibition of TGF-beta1-induced alpha-SMA expression [%]
CN[C@@H]1[C@H](O[C@H]2[C@H](O[C@H]3[C@H](O)[C@@H](O)[C@H](N=C(N)N)[C@@H](O)[C@@H]3N=C(N)N)O[C@@H](C)[C@]2(O)C=O)O[C@@H](CO)[C@H](O)[C@H]1O [Streptomycin sulfate]	-24.5
Cn1nnc(-c2ccc(-c3ccc(N4C[C@H](COP(=O)(O)O)OC4=O)cc3F)cn2)n1 [Tedizolid Phosphate]	-40.4
CCOC(=O)C1=C[C@@H](OC(CC)CC)[C@H](NC(C)=O)[C@@H](N)C1 [Oseltamivir Phosphate]	17.6
C[C@]12CCC(=O)C=C1CC[C@@H]1[C@@H]2[C@@H](O)C[C@@]2(C)[C@H]1CC[C@]2(O)C(=O)CO [Hydrocortisone]	86.9
